Values from PubChem BioAssay AID1224830 (NIAID, 2016)
Test: 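Genes whose knock-down alters the TNF-alpha reporter response to LPS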 (primary screen). Cell system: human THP-1 monocytic leukaemia cells, TNF dual-luciferase reporter clone, PMA-differentiated to macrophage-like cells. Reagents: siRNA pool against human genes, 50 nM. Time to read-out: LPS for 4 h, given about 3 days after siRNA transfection. Challenge: bacterial LPS (TLR4 ligand), 10 ng/ml. Measured: 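Ratio of firefly to renilla light, scaled to the plate median and expressed as a robust z-score per replicate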. Reading the numbers: TNF reporter robust z-score: higher = stronger TNF reporter response to LPS. Active means: 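Each well counts as active if its z-score is over 2.8 or under -1.5; controls are left without a call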.
This is one part, drawn at random, of about 18,000 reagents. Of all reagents, about 2,900 (16%) were called active. 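Calls are made per well; low scores hint the gene aids the LPS response, high scores that it dampens it.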 A number with no mark means an inactive call. Repeated entries: four replicate wells of each siRNA pool. Reagent sequences are not shown.

| Target gene | TNF reporter robust z-score |
| --- | --- |
| H2AC8 | 0.01 |
| H2AC8 | -0.49 |
| H2AC8 | -0.57 |
| H2AC8 | -0.61 |
| ABCB4 | 0.22 |
| ABCB4 | 0.98 |
| ABCB4 | 1.2 |
| ABCB4 | 0.45 |
| PARVB | 0.56 |
| PARVB | 0.71 |
| PARVB | -0.59 |
| CSNK1G1 | -0.81 |
| CSNK1G1 | -0.77 |
| CSNK1G1 | -0.21 |
| CSNK1G1 | 0.18 |
| CNTN3 | -0.7 |
| CNTN3 | 0.27 |
| CNTN3 | -0.84 |
| CNTN3 | -0.67 |
| DOP1B | 0.06 |
| DOP1B | 1.67 |
| DOP1B | 0.23 |
| DOP1B | 1.9 |
| HIRA | -1.21 |
| HIRA | -0.89 |
| HIRA | -0.97 |
| HIRA | -0.27 |
| SLC25A19 | -0.49 |
| SLC25A19 | -1.04 |
| SLC25A19 | -0.87 |
| SLC25A19 | 0.24 |
| LEAP2 | -0.26 |
| LEAP2 | -0.64 |
| LEAP2 | -0.87 |
| LEAP2 | 0.17 |
| RNF125 | -0.91 |
| RNF125 | -0.86 |
| RNF125 | 0.11 |
| RNF125 | -0.53 |
| LMAN2L | 0.27 |
| LMAN2L | 2.56 |
| LMAN2L | 0.78 |
| LMAN2L | 0.46 |
| DAP | -0.73 |
| DAP | -0.39 |
| DAP | -0.51 |
| DAP | -0.95 |

8 of these entries, set out differently.
Target gene,TNF reporter robust z-score
RNF125,0.11
RNF125,-0.53
LMAN2L,0.27
LMAN2L,2.56
LMAN2L,0.78
LMAN2L,0.46
DAP,-0.73
DAP,-0.39
